Laboratory results: article PMC12667515

What was measured:
[1] = target: T1, BSMV‐encoded TGB1 of the HvARI8 Co‐IP assay (tag not stated) (barley stripe mosaic virus) (UniProt P04867); assay: co-IP; constructs co-infiltrated into N. benthamiana leaves, 48 hpi; lysis in 25 mM Tris-HCl pH 7.5, 150 mM NaCl, 1 mM EDTA, 10% glycerol; anti-Flag or anti-GFP agarose beads, 4°C, 3–4 h; washes with 0.1% NP-40; blots with anti-FLAG or anti-GFP
T1 sequence: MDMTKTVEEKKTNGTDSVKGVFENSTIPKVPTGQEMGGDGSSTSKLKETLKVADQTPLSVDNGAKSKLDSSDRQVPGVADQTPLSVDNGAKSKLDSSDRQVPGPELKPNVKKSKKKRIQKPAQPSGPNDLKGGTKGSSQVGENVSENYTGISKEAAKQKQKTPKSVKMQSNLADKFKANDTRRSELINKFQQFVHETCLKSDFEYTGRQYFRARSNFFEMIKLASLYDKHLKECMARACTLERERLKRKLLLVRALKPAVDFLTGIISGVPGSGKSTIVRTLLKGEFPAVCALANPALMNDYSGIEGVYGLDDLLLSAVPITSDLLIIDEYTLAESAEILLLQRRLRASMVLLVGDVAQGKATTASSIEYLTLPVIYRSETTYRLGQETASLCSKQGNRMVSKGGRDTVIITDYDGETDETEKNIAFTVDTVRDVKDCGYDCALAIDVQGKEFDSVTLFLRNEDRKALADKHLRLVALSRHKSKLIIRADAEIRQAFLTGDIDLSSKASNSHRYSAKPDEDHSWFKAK

[2] = target: T2, TGB1–nLuc (BSMV TGB1) (barley stripe mosaic virus) (UniProt P04867); assay: split reporter; firefly luciferase complementation imaging (LCI, split-LUC); nLuc and cLuc fusions co-infiltrated into N. benthamiana leaves, 48 hpi, 1 mmol/L luciferin
T2 sequence: T1 sequence

[3] = target: T3, YFPc–TGB1 (BSMV TGB1 fused with the C‐terminal fragment of YFP) (barley stripe mosaic virus) (UniProt P04867); assay: split reporter; BiFC with YFPn and YFPc fusions co-infiltrated into N. benthamiana leaves, confocal microscopy at 48 hpi; TGB1 alone or expressed from the BSMV infectious cDNA
T3 sequence: T1 sequence

[4] = target: T4, GST‐tagged TGB1 (BSMV TGB1) (barley stripe mosaic virus) (UniProt P04867); assay: pull-down; 6 µg GST-tagged TGB1 with 5 µg ARI8 or His-tagged GFP on GST agarose beads, 3 h, 4°C; 50 mM Tris-HCl pH 7.5-8.0, 200 mM NaCl, 5 mM DTT, 0.2% glycerol, 0.6% Triton X-100; washes with 250 mM NaCl; blots with anti-GST or anti-His; both purified
T4 sequence: T1 sequence

[5] = target: T5, cLuc–TGB1 (BSMV TGB1) (barley stripe mosaic virus) (UniProt P04867); assay: split reporter; firefly luciferase complementation imaging (LCI, split-LUC); nLuc and cLuc fusions co-infiltrated into N. benthamiana leaves, 48 hpi, 1 mmol/L luciferin
T5 sequence: T1 sequence

[6] = target: T6, YFPc–TGB1 expressed from the BSMV infectious cDNA (BSMV_(YFPc–TGB1)) (barley stripe mosaic virus) (UniProt P04867); assay: split reporter; BiFC with YFPn and YFPc fusions co-infiltrated into N. benthamiana leaves, confocal microscopy at 48 hpi; TGB1 alone or expressed from the BSMV infectious cDNA
T6 sequence: T1 sequence

[7] = target: ARI8–3×Flag (N. benthamiana ARI8) (Nicotiana benthamiana); assay: co-IP; constructs co-infiltrated into N. benthamiana leaves, 48 hpi; lysis in 25 mM Tris-HCl pH 7.5, 150 mM NaCl, 1 mM EDTA, 10% glycerol; anti-Flag or anti-GFP agarose beads, 4°C, 3–4 h; washes with 0.1% NP-40; blots with anti-FLAG or anti-GFP

Q: “HvARI8 (barley ARI8) of the Co‐IP assay (Hordeum vulgare) (enzyme)” was tested. Which binding [1] did it give?
A: The binding was “binds”.

Q: For “cLuc–ARI8^C311S (Nicotiana benthamiana) (enzyme)”, which binding [2] is on record?
A: The binding was “binds”.

Q: For “ARI8^C311S of the BiFC assay (Nicotiana benthamiana) (enzyme)”, which binding [3] is on record?
A: Its binding is “binds”.

Q: Which binding [4] does the source give for “His‐tagged ARI8 (N. benthamiana ARI8) (Nicotiana benthamiana) (enzyme)” here?
A: Its binding is “binds”.

Q: For “ARI8–nLuc (N. benthamiana ARI8) (Nicotiana benthamiana) (enzyme)”, which binding [5] is on record?
A: Its binding is “binds”.

Q: “YFPn–HvARI8 (barley ARI8 in the BiFC vector) (Hordeum vulgare) (enzyme)” was tested. Which binding [3] did it give?
A: Its binding is “binds”.

Q: With “YFPn–ARI8 (ARI8 fused with the N‐terminal fragment of yellow fluorescent protein) (Nicotiana benthamiana) (enzyme)” as the molecule, how does the binding [3] read?
A: The binding was “binds”.

Q: What about the binding [6] of the same molecule?
A: Its binding is “binds”.

B1: GFP–TGB1 (GFP‐tagged BSMV TGB1) (protein, UniProt P04867 1-528)
chain: T1 sequence
Q: Which binding [7] does the source give for B1 here?
A: Its binding is “binds”.

Results are given in words; binding and its absence hold for the method and conditions named. Binding can be weak; no strength is given. For part of these data: Tags and fused reporters may be left off the sequences shown. For part of these data: In cells and extracts the contact can be indirect.
